Measurements from patent US20030207400A1 (priority 2003, published 2003).
Where “and” joins values, the source holds several entries; their conditions need not be identical. Identical values can stand only once.

Experiment: general procedure: peptide synthesis; PyBOP, HOBt and DIEA
Conditions: TFA

Substance: βAla-Pyr-Im-βAla-Pyr-Im-GABA-Pyr-Im-βAla-Pyr-Im
- step yield (purification step, product recovered vs total product in crude loaded): 80%
- isolated yield (whole synthesis, run 1): 28.4% and 16%
- final HPLC purity (whole synthesis, analytical HPLC, run 1): >95% and 59%
